The assay in a line: qHTS Assay for Lipid Storage Modulators in Drosophila S3 Cells.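 For cell number change: cells counted by Cell Tracker Red CMTPX staining in the red channel.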 Conditions: BODIPY lipid droplet fluorescence, 18-24 h; for cell number change: measured here: cell count max response, cells fed with added oleic acid. In short, it runs like this:
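Laser-scanning cytometry quantifies lipid droplet accumulation (500–530 nm total intensity; droplet/cell object ratio) in oleic acid-fed (400 uM added) Drosophila S3 cells treated with a concentration series. 20 uM Triacsin C defined 100% inhibition.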
In general terms: qHTS replaces the single test concentration by a dilution series.

The mark [1] stands for this setting: measured here: cell number channel AC50, cells fed with added oleic acid.
Setting [2] is: measured here: lipid fluorescence (Fed channel) AC50, cells fed with added oleic acid.

The list shows a part of the results. Further columns of the screen follow, without active or inactive calls. Compounds called inactive in the main read-out are mostly missing here. Potencies come from curve fits of mixed quality, noted in brackets.

The record followed here is PubChem BioAssay AID2685 (National Center for Advancing Translational Sciences (NCATS), 2010).

One may read the AC50 as the concentration at which the activity in the assay is half-maximal. A lower AC50 goes with activity at low concentration.

Regarding `COc1ccccc1N1CCN(C(=O)c2cc3c(=O)n4ccccc4nc3s2)CC1`, the cell number change is 11.2%. The AC50 under setting [1] was 1.3 µM [rising, partial curve, poor fit]. Also, the AC50 under setting [2] was 0.00461 µM [rising, full curve, poor fit].

Regarding `COc1ccc(C(=O)N(C)c2c(C)n(C)n(-c3ccccc3)c2=O)cc1OC`, the cell number change is -57.5%. Further, the concentration at half-maximal activity (AC50) under setting [1] was 16.4 µM [falling, single point]. `CC(C)C(=O)Nc1nc(-c2ccc3c(c2)CCN3C(=O)C2CC2)cs1`: the cell number change was -25.7%.

For the compound `CCOc1ccc(-n2c(SCC(=O)Nc3ccc4c(c3)OCO4)nc3ccccc3c2=O)cc1`, the cell number change stood at 47.3%. Moreover, the AC50 under setting [2] is 0.0651 µM [rising, full curve, poor fit]. On to `Cc1nnc(SCC(=O)N(C)Cc2ccccc2)[nH]c1=O`, for which the cell number change was found to be 20.2%. Also, the AC50 under setting [1] is 7.31 µM [rising, partial curve, poor fit]. Also, the AC50 under setting [2] is 0.00517 µM [falling, full curve, poor fit]. In the case of `Clc1ccc(OCCN2CCOCC2)cc1Cl`, the cell number change was -71.2%. The concentration at half-maximal activity (AC50) under setting [1] was 29.1 µM [falling, single point]. Consider `CCCCCCN1C=CC=C/C1=C\C=C(C#N)C#N`, for which the cell number change was -8.42%. For `O=C(NCc1ccccc1Cl)C1(S(=O)(=O)c2ccc(Cl)cc2)CC1`, the cell number change is -1.9%. Consider `CCOC(=O)c1sc2nc3c(cc2c1N)COC(C(C)C)C3` (configuration not stated), for which the cell number change is 1.78%. Regarding `O=C(/C=C/c1ccc(Br)o1)OCc1ccccc1`, the cell number change is 14.7%. Also, under setting [2], the AC50 was 29.1 µM [falling, single point].

Consider `CCC(CC)NC(=O)CN1CCN(S(=O)(=O)c2ccc(Br)s2)CC1`, for which the cell number change was -8.23%. Besides, the AC50 under setting [2] is 6.51 µM [falling, single point]. With `CCN1CCN(C(=O)C(=O)c2cn(CC(=O)N3CCCCCC3)c3ccccc23)CC1`, under setting [2], the AC50 is 18.4 µM [falling, single point]. `O=C(c1cc(-c2ccc(Cl)s2)nc2ccccc12)N1CCOCC1`: the cell number change turned out to be 27.9%. For the same compound, under setting [2], the AC50 was 25.9 µM [rising, single point]. With `CCCc1cc(C(=O)Nc2ccc(OC)cc2[N+](=O)[O-])cs1`, the cell number change was -17.1%. Moreover, the AC50 under setting [2] is 29.1 µM [falling, single point]. Turning to `Cc1noc(C)c1CSc1nc2ccccc2s1`, the AC50 reads like this: under setting [1], 0.082 µM [falling, full curve, poor fit]; under setting [2], 6.51 µM [falling, single point].

Consider `COc1cccc(N=Nc2c(N)[nH][nH]c2=O)c1`, for which the cell number change came to 21.5%. Moreover, under setting [2], the concentration at half-maximal activity (AC50) is 1.84 µM [falling, single point]. On to `Cc1ccc(NC(=O)Nc2nnc(Cc3ccc(F)cc3)s2)cc1`, for which the cell number change is -35.1%. Also, under setting [1], the AC50 is 16.4 µM [falling, single point]. Besides, under setting [2], the AC50 is 23.1 µM [falling, single point].
